# Source: publication PMC9663514
# Sequences of proteins named here, by UniProt entry; tags and fusion partners are left off. A change or cut given only in a name is not applied to a line headed by its entry. A line that says so, or that is headed by a name, gives the form on record, which may keep a tag or linker.
# UniProt P29597: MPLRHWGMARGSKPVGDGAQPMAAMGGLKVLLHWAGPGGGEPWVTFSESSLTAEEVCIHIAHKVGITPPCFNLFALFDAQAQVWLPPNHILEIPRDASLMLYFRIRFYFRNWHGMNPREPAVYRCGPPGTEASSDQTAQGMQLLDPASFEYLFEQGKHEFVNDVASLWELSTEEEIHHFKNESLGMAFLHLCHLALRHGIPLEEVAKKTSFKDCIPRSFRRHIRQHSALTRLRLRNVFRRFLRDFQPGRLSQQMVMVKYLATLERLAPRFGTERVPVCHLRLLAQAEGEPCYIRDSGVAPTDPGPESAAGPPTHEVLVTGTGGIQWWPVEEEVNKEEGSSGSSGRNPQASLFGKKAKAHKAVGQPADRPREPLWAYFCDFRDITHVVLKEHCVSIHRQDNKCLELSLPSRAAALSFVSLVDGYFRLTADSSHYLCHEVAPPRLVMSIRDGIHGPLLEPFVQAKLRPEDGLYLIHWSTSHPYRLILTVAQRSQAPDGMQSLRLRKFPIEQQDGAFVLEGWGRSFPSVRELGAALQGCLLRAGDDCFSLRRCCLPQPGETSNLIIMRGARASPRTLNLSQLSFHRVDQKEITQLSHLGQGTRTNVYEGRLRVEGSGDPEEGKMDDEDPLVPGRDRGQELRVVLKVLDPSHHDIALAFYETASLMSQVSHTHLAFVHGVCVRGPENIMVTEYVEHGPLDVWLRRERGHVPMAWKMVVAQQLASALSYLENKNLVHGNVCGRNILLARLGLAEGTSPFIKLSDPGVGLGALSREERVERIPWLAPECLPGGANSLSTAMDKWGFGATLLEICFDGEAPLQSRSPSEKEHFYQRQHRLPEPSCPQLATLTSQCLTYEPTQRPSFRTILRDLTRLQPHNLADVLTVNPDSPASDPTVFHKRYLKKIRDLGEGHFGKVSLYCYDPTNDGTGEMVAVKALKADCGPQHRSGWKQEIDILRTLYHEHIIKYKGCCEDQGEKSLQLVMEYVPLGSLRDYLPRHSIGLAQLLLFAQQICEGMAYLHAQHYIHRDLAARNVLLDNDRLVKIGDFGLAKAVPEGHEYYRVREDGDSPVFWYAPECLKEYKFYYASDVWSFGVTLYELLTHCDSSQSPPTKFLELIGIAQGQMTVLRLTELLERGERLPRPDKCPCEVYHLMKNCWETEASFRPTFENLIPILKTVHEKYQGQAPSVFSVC
# ErbB4 JM-a CYT-2-HA (Q15303-3, form named): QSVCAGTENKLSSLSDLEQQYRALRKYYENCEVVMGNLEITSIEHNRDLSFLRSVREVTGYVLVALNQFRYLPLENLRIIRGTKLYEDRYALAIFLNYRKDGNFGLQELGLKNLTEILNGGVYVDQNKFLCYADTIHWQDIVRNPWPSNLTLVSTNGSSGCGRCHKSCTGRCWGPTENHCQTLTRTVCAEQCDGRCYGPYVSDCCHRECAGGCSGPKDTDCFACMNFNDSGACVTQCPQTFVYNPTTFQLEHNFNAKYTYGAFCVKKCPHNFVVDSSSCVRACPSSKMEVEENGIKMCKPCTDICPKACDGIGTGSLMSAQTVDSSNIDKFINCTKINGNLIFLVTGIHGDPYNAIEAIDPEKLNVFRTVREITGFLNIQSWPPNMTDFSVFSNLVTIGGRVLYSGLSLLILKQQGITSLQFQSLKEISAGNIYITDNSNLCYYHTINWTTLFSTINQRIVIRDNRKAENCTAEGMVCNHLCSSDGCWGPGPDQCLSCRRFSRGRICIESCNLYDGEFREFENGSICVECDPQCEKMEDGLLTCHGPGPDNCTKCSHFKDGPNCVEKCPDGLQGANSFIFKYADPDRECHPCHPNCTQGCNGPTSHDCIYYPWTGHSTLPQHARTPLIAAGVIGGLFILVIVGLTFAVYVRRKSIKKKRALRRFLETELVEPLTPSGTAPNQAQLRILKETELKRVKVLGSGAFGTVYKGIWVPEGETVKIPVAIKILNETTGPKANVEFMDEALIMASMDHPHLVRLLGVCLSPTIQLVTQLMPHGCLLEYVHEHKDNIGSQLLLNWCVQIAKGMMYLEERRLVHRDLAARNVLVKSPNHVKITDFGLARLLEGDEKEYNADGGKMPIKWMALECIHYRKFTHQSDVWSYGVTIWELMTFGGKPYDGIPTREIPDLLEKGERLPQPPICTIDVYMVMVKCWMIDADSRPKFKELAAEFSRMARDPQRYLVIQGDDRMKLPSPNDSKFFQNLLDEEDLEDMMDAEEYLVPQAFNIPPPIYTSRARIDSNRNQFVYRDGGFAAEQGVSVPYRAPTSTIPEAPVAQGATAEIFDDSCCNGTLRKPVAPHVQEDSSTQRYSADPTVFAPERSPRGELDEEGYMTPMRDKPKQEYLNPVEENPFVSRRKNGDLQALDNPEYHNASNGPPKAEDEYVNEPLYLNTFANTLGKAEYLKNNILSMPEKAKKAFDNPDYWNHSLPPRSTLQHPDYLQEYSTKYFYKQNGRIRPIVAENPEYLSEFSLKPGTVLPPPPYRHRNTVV
# ErbB4 JM-b CYT-2-HA (Q15303-4, form named): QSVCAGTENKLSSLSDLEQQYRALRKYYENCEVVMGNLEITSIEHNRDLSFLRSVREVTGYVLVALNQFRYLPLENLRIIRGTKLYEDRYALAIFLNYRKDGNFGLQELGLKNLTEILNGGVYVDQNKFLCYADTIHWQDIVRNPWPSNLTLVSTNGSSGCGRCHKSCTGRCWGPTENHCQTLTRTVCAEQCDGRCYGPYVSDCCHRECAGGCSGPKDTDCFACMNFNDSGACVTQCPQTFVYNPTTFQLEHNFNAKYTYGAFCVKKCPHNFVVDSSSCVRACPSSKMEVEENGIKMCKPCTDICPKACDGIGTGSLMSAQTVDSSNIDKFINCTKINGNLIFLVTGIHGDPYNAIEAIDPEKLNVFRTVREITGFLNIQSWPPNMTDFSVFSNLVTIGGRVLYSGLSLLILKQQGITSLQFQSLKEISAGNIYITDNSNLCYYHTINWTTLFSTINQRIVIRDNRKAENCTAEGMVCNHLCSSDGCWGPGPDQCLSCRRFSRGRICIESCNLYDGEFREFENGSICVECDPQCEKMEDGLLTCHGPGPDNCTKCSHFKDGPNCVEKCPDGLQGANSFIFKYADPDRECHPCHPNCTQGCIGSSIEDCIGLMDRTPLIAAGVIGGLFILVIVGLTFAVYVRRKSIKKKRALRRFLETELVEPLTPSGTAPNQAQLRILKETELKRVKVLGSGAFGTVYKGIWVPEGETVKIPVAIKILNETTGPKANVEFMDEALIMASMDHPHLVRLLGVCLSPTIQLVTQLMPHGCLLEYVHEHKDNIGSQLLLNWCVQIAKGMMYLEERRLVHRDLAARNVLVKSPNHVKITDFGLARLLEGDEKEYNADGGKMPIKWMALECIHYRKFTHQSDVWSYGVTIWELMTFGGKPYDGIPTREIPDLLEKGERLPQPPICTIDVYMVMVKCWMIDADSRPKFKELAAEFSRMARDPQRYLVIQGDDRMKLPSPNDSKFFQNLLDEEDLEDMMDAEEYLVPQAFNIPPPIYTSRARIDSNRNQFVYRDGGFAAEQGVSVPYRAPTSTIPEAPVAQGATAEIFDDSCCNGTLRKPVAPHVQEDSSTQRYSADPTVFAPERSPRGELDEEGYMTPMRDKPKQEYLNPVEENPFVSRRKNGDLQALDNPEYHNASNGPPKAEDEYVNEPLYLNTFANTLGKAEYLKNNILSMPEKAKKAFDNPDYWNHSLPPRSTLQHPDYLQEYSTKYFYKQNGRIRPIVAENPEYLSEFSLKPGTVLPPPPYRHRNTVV
# Results are given in words; binding and its absence hold for the method and conditions named. In cells and extracts the contact can be indirect. Some results given as binding are weak or reduced against the parent protein; the word gives no strength.
# Target: GFP-tagged TYK2 (UniProt P29597)
# Experiment: co-IP; MCF-7 cells expressing GFP-tagged TYK2, JAK1, JAK2 or JAK3 and HA-tagged ErbB4 JM-a or JM-b, after NRG-1 stimulation; cells cross-linked with 1-3 mM DSP or DTPB for 2 min before lysis; anti-GFP immunoprecipitation, Western blot
row,binding,Substance
1,no binding,ErbB4 JM-a CYT-2-HA (from UniProt Q15303-3 26-1292) (receptor)
2,binds,ErbB4 JM-b CYT-2-HA (from UniProt Q15303-4 26-1282) (receptor)
